# According to patent EP2774935A1:
# Positions count from the first letter of the chain named. Results are given in words; binding and its absence hold for the method and conditions named. Some results given as binding are weak or reduced against the parent protein; the word gives no strength. Sequences can lack the tags named with a protein.
# T1: recombinant human GFRα2-Fc chimera (R&D Systems) (human) (UniProt O00451)
# T1 sequence (looked up): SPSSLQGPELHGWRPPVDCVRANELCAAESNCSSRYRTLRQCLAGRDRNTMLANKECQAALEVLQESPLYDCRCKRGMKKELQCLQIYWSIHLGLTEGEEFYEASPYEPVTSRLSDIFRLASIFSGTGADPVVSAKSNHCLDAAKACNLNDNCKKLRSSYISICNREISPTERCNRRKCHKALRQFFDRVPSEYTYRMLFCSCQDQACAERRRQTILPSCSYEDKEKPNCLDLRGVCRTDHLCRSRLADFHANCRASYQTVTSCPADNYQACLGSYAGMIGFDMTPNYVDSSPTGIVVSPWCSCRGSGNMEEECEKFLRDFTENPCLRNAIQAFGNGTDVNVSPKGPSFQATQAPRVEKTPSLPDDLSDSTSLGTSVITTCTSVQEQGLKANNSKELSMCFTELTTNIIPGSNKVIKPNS
# B1: wild-type V5-tagged neurturin (ligand)
# chain: ARGKPIPNPLLGLDSTSGARLGARPCGLRELEVRVSELGLGYASDETVLFRYCAGACEAAARVYDLGLRRLRQRRRLRRERVRAQPCCRPTAYEDEVSFLDAHSRYHTVHELSARECACV
# B2: V5-tagged neurturin variant NV3 (ligand)
# chain: B1 chain with R70A, R72A, R74A, R76A, R79A
# B3: V5-tagged neurturin variant NV2 (ligand)
# chain: B1 chain with R72A, R79A, R81A
# B4: V5-tagged neurturin variant NV4 (ligand)
# chain: B1 chain with R69A, R72Q, Q73G, R74Q, R75G, R76A, R78V, R79G, E80S
# B5: V5-tagged neurturin variant NV1 (ligand)
# chain: B1 chain with R70A, R74A, R76A
# Target: T1, recombinant human GFRα2-Fc chimera (R&D Systems) (human)
# Assay: precipitation from CHO medium with GFRα2-Fc and Protein G-Sepharose, Western blot (results not shown)
row,binding,Binder
1,binds,B1
2,binds,B2
3,binds,B3
4,binds,B4
5,binds,B5
